In assay [1] the target is T1, Peroxiredoxin 1 (mouse (endogenous in C2C12 myotubes and mouse muscle)), P35700.
T1 chain: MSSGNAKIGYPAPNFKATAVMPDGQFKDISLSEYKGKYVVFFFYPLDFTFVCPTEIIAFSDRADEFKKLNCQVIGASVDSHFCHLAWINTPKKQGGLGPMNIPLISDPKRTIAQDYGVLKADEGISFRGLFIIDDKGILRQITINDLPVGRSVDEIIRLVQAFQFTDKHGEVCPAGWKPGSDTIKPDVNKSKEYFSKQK
The assay can be described thus: non-reducing SDS-PAGE with immunoblot; lysates of isolated FDB muscle fibers of adult and old mice, quiescent, electrically stimulated to contract for up to 15 min, or rested afterwards; 75 mM MMTS before and during lysis; 15% non-reducing gel; monomer and disulphide-linked dimer bands. The note with it: remark: other sources report otherwise. A general note: In western blotting, separated proteins are transferred to a membrane and probed.

Assay [2] deals with T1, Peroxiredoxin 1 (mouse (endogenous in …)). The assay can be described thus: non-reducing SDS-PAGE with immunoblot; lysates of C2C12 myotubes (untreated or treated with 2.5-250 uM H2O2; in the test of alkylating agents also slices of mouse gastrocnemius muscle), alkylated (NEM, IAA or MMTS; then 75 mM MMTS) before and during lysis in RIPA buffer; 15% non-reducing gel; monomer band 20-25 kDa, disulphide-linked dimer band 35-50 kDa. The note with it: remark: other sources report otherwise.

Assay [3] addresses T2, Peroxiredoxin 2 (mouse (endogenous in C2C12 myotubes and mouse muscle)), Q61171.
T2 chain: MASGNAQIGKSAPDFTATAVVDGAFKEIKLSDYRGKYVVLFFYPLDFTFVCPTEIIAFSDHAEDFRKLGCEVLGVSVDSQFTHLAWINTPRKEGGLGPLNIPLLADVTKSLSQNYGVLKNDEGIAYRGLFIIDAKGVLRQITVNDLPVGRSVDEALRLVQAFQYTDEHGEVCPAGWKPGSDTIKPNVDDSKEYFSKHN
The assay can be described thus: non-reducing SDS-PAGE with immunoblot; lysates of isolated FDB muscle fibers of adult and old mice, quiescent, electrically stimulated to contract for up to 15 min, or rested afterwards; 75 mM MMTS before and during lysis; 15% non-reducing gel; monomer and disulphide-linked dimer bands. The note with it: remark: other sources report otherwise.

Assay [4] deals with T2, Peroxiredoxin 2 (mouse (endogenous in …)). Nature of the assay: non-reducing SDS-PAGE with immunoblot; lysates of C2C12 myotubes (untreated or treated with 2.5-250 uM H2O2; in the test of alkylating agents also slices of mouse gastrocnemius muscle), alkylated (NEM, IAA or MMTS; then 75 mM MMTS) before and during lysis in RIPA buffer; 15% non-reducing gel; monomer band 20-25 kDa, disulphide-linked dimer band 35-50 kDa. The note with it: remark: other sources report otherwise.

Assay [5] concerns the target Peroxiredoxin 3 (mouse (endogenous in C2C12 myotubes and mouse muscle)) (UniProt P20108). Nature of the assay: non-reducing SDS-PAGE with immunoblot; lysates of isolated FDB muscle fibers of adult and old mice, quiescent, electrically stimulated to contract for up to 15 min, or rested afterwards; 75 mM MMTS before and during lysis; 15% non-reducing gel; monomer and disulphide-linked dimer bands.

Assay [6] has the same target. The assay can be described thus: non-reducing SDS-PAGE with immunoblot; lysates of C2C12 myotubes (untreated or treated with 2.5-250 uM H2O2; in the test of alkylating agents also slices of mouse gastrocnemius muscle), alkylated (NEM, IAA or MMTS; then 75 mM MMTS) before and during lysis in RIPA buffer; 15% non-reducing gel; monomer band 20-25 kDa, disulphide-linked dimer band 35-50 kDa.

These are yes or no findings as the source states them, for the method shown. Some binding calls cover weakened binding; strength is not graded here.

B1: Peroxiredoxin 1, P35700 1-199 (protein)
chain: MSSGNAKIGYPAPNFKATAVMPDGQFKDISLSEYKGKYVVFFFYPLDFTFVCPTEIIAFSDRADEFKKLNCQVIGASVDSHFCHLAWINTPKKQGGLGPMNIPLISDPKRTIAQDYGVLKADEGISFRGLFIIDDKGILRQITINDLPVGRSVDEIIRLVQAFQFTDKHGEVCPAGWKPGSDTIKPDVNKSKEYFSKQK
For B1, the binding entry in assay [1] and in assay [2] was “binds” each time.

B2: Peroxiredoxin 2, Q61171 1-198 (protein)
chain: MASGNAQIGKSAPDFTATAVVDGAFKEIKLSDYRGKYVVLFFYPLDFTFVCPTEIIAFSDHAEDFRKLGCEVLGVSVDSQFTHLAWINTPRKEGGLGPLNIPLLADVTKSLSQNYGVLKNDEGIAYRGLFIIDAKGVLRQITVNDLPVGRSVDEALRLVQAFQYTDEHGEVCPAGWKPGSDTIKPNVDDSKEYFSKHN
In the case of B2, the binding entry in assay [3] and in assay [4] was “binds” each time.

B3: Peroxiredoxin 3 (protein, UniProt P20108 63-257)
chain: TPAVTQHAPYFKGTAVVNGEFKELSLDDFKGKYLVLFFYPLDFTFVCPTEIVAFSDKANEFHDVNCEVVAVSVDSHFSHLAWINTPRKNGGLGHMNITLLSDITKQISRDYGVLLESAGIALRGLFIIDPNGVVKHLSVNDLPVGRSVEETLRLVKAFQFVETHGEVCPANWTPESPTIKPSPTASKEYFEKVHQ
As for B3, the binding entry in assay [5] and in assay [6] was “binds” each time.

The values above are taken from article PMC7718083.
